# Measured values taken from PubChem BioAssay AID220 (DTP/NCI, 2004).
# The list shows only some results of the screen, not a fair sample: it gathers tests that were run many times, whatever their T/C, doses with no T/C, and many T/C values between a quarter and a half above the control. Other doses and runs of a compound stand elsewhere. T/C: endpoint of the treated group in % of that of the vehicle group. Schedule codes are those of the source, taken here to give the interval after Q, in days (D) or hours (H), and the number of doses after X. Some T/C values are followed by the survivors on the day toxicity was checked, most often the fifth; without a count, all were alive then. Some doses have a count of surviving animals in place of a T/C: the source files T/C as zero there, which appears to mark a toxic dose or a test without result, not a measured value. Survivors were counted at the toxicity check, usually on the fifth day, unless a day is given; later deaths do not show. Some doses were run more than once; the values are given in rising order.
# System: CD8F1 mice, subcutaneous mammary adenocarcinoma, T/C%
# Assay: NCI In Vivo Anticancer Drug Screen. Data for tumor model Mammary Adenocarcinoma CD8F1 (subcutaneous) in CD8F1
# Conditions: higher T/C = larger tumour
# Summary of the method: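 Mice carrying transplanted tumors received test compound, and survival or tumor size was recorded. Each value is the treated-group measurement divided by the corresponding measurement in vehicle-dosed controls.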
# [1] = T/C endpoint: median tumor weight change, dose: 500.0 mg/kg/injection, schedule: Q01DX001 (ip), vehicle: saline with Tween-80
# [2] = T/C endpoint: median tumor weight change, dose: 200.0 mg/kg/injection, schedule: Q01DX001 (ip), vehicle: saline
structure (smiles),measurement,setting,value
CC12C(=O)C=CCC1=CCC1C2CCC2(O)C(=O)OC3(C)C4CC5(C)C(COC16OC23C5C6=O)C(=O)O4 (stereo not given),T/C,"T/C endpoint: median tumor weight change, dose: 125.0 mg/kg/injection, schedule: Q01DX001 (ip), vehicle: Klucel (hydroxypropylcellulose) (HPC), evaluated on day 29",138 % of control [9 of 10 alive on day 29]
same,survivor count,"T/C endpoint: median tumor weight change, dose: 1000.0 mg/kg/injection, schedule: Q01DX001 (ip), vehicle: Klucel (hydroxypropylcellulose) (HPC)",0 of 10 on day 29
same,survivor count,"T/C endpoint: median tumor weight change, dose: 2000.0 mg/kg/injection, schedule: Q01DX001 (ip), vehicle: Klucel (hydroxypropylcellulose) (HPC)",0 of 10 on day 29
CC(=O)ON(C(C)=O)c1ccc(C(N)=O)cc1,survivor count,[1],5 of 10 on day 31
same,survivor count,"T/C endpoint: median tumor weight change, dose: 1000.0 mg/kg/injection, schedule: Q01DX001 (ip), vehicle: saline with Tween-80",1 of 10 on day 31
CCc1ccc(C2=C(O)C(=O)C(c3ccc(CC)cc3)=C(O)C2=O)cc1,survivor count,"T/C endpoint: median tumor weight change, dose: 250.0 mg/kg/injection, schedule: Q01DX001 (ip), vehicle: saline with Tween-80",2 of 10 on day 24
same,survivor count,[1],1 of 10 on day 24
CC(=O)OCC1OC(OC2=C(CC=C(C)C)C(=O)c3ccccc3C2=O)C(OC(C)=O)C(OC(C)=O)C1OC(C)=O (stereo not given),T/C,"T/C endpoint: median tumor weight (est.), dose: 25.0 mg/kg/injection, schedule: Q07DX005 (ip), vehicle: Klucel (hydroxypropylcellulose) (HPC), evaluated on day 30",143 % of control [9 of 10 alive]
same,T/C,"T/C endpoint: median tumor weight (est.), dose: 100.0 mg/kg/injection, schedule: Q07DX005 (ip), vehicle: Klucel (hydroxypropylcellulose) (HPC), evaluated on day 30",131 % of control
Cc1c2cc(Cl)c3ccccc3c2c[n+]2ccccc12,survivor count,"T/C endpoint: median tumor weight (est.), dose: 400.0 mg/kg/injection, schedule: Q07DX005 (ip), vehicle: saline with Tween-80",0 of 10 on day 30 and 3 of 10 on day 30
C(=N/NC1=NCCN1)/c1c2ccccc2c(/C=N\NC2=NCCN2)c2ccccc12,survivor count,[2],5 of 10 on day 32
same,survivor count,"T/C endpoint: median tumor weight change, dose: 400.0 mg/kg/injection, schedule: Q01DX001 (ip), vehicle: saline",0 of 10 on day 32
Nc1nc2n[nH]nc2c(=O)[nH]1,survivor count,"T/C endpoint: median tumor weight change, dose: 1000.0 mg/kg/injection, schedule: Q01DX001 (ip), vehicle: suspension in saline",0 of 10 on day 30
same,survivor count,"T/C endpoint: median tumor weight change, dose: 2000.0 mg/kg/injection, schedule: Q01DX001 (ip), vehicle: suspension in saline",0 of 10 on day 30
C[N+](C)(C)c1ncnc2c1ncn2C1CCCO1 (stereo not given),survivor count,"T/C endpoint: median tumor weight (est.), dose: 200.0 mg/kg/injection, schedule: Q07DX005 (ip), vehicle: saline",1 of 10
C=C(C)C12CC(C)C34OC(CCCCCCCCCCC)(OC1C3C1OC1(CO)C(O)C1(O)C(=O)C(C)=CC14C)O2 (stereo not given),T/C,"T/C endpoint: median tumor weight (est.), dose: 50.0 micrograms/kg/injection, schedule: Q07DX005 (ip), vehicle: saline + alcohol, evaluated on day 30",129 % of control
CC/C(=C(/CC)c1ccc(O)cc1)c1ccc(O)cc1,survivor count,"T/C endpoint: median tumor weight (est.), dose: 400.0 mg/kg/injection, schedule: Q07DX005 (ip), vehicle: water",6 of 10 on day 30
CC1=C(/C=C/C(C)=C/C=C/C(C)=C/CO)C(C)(C)CCC1,T/C,"T/C endpoint: median tumor weight (est.), dose: 32.0 mg/kg/injection, schedule: Q07DX005 (ip), vehicle: saline with Tween-80, evaluated on day 30",134 % of control
CC(=O)NC(C=O)OCC=O (stereo not given),survivor count,"T/C endpoint: median tumor weight change, dose: 1000.0 mg/kg/injection, schedule: Q01DX001 (ip), vehicle: water",0 of 10 on day 29
CCNC(=O)[B-][N+](C)(C)C,survivor count,"T/C endpoint: median tumor weight change, dose: 800.0 mg/kg/injection, schedule: Q01DX001 (ip), vehicle: Klucel (hydroxypropylcellulose) (HPC)",0 of 10 on day 36
[CH3][Sn]([CH3])([Cl])[S]CCN,T/C,"T/C endpoint: median tumor weight change, dose: 25.0 mg/kg/injection, schedule: Q01DX001 (ip), vehicle: saline, evaluated on day 33",126 % of control
same,T/C,"T/C endpoint: median tumor weight change, dose: 50.0 mg/kg/injection, schedule: Q01DX001 (ip), vehicle: saline, evaluated on day 33",140 % of control
same,survivor count,"T/C endpoint: median tumor weight change, dose: 100.0 mg/kg/injection, schedule: Q01DX001 (ip), vehicle: saline",0 of 10 on day 33
same,survivor count,[2],0 of 10 on day 33
O=C(NO)c1cc(O)c(O)c(O)c1,survivor count,"T/C endpoint: median tumor weight change, dose: 1200.0 mg/kg/injection, schedule: Q01DX001 (ip), vehicle: water",3 of 10 on day 34
same,survivor count,"T/C endpoint: median tumor weight change, dose: 2400.0 mg/kg/injection, schedule: Q01DX001 (ip), vehicle: water",0 of 10 on day 34
Nc1cccc(=O)[nH]1,T/C,"T/C endpoint: median tumor weight (est.), dose: 100.0 mg/kg/injection, schedule: Q07DX005 (ip), vehicle: saline, evaluated on day 30",143 % of control
same,T/C,"T/C endpoint: median tumor weight (est.), dose: 200.0 mg/kg/injection, schedule: Q07DX005 (ip), vehicle: saline, evaluated on day 30",144 % of control
same,survivor count,"T/C endpoint: median tumor weight change, dose: 2000.0 mg/kg/injection, schedule: Q01DX001 (ip), vehicle: saline",0 of 10 on day 28
CCOC(=O)c1cn(C)c2c1C(O)=C(C(=O)OC)CC(=O)N2,survivor count,"T/C endpoint: median tumor weight change, dose: 2000.0 mg/kg/injection, schedule: Q01DX001 (ip), vehicle: saline with Tween-80",2 of 10 on day 29
